Source: patent US20220211877A1, “COMPOUND FOR INTRAOPERATIVE MOLECULAR BIOIMAGING, METHOD OF MAKING THE SAME, USE THEREOF IN INTRAOPERATIVE MOLECULAR BIOIMAGING AND SURGICAL METHOD COMPRISING INTRAOPERATIVE MOLECULAR BIOIMAGING” (Klinikum rechts der lsar der Techischen Universität München, priority 2018, published 2022)
For at least one compound, name, drawing or mass did not settle the structure.

Chains of the proteins cited; added tags and fusions are not shown. Residues count along the entry.
UniProt P06756, 891-992 partner limits assumed: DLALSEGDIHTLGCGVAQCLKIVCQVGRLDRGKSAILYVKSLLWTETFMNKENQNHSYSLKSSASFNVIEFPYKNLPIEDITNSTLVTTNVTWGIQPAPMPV
UniProt P06756, 31-889 limits assumed: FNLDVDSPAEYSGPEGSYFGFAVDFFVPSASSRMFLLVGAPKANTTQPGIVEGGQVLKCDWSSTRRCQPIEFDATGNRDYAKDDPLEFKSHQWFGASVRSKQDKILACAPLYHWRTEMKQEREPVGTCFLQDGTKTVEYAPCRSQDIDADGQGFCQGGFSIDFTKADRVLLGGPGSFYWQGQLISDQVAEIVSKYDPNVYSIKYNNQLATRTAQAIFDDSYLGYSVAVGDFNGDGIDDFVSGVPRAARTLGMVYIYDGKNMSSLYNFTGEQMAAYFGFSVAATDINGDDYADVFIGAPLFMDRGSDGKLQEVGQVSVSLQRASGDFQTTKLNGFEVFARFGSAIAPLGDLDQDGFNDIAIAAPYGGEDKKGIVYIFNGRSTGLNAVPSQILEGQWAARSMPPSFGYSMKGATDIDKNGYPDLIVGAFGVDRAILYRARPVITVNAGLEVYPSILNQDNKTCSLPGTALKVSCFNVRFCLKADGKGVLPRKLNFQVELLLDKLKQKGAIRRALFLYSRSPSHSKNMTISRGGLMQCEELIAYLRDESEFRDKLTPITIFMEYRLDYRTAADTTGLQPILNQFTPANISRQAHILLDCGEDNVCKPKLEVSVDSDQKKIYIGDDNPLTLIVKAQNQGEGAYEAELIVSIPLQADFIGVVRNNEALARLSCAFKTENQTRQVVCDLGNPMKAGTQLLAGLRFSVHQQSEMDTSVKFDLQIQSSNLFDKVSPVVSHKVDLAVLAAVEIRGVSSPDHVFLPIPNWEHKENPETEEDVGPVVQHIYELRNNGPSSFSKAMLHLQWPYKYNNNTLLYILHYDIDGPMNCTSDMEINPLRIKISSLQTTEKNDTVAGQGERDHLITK
UniProt P26012, 43-684 limits assumed: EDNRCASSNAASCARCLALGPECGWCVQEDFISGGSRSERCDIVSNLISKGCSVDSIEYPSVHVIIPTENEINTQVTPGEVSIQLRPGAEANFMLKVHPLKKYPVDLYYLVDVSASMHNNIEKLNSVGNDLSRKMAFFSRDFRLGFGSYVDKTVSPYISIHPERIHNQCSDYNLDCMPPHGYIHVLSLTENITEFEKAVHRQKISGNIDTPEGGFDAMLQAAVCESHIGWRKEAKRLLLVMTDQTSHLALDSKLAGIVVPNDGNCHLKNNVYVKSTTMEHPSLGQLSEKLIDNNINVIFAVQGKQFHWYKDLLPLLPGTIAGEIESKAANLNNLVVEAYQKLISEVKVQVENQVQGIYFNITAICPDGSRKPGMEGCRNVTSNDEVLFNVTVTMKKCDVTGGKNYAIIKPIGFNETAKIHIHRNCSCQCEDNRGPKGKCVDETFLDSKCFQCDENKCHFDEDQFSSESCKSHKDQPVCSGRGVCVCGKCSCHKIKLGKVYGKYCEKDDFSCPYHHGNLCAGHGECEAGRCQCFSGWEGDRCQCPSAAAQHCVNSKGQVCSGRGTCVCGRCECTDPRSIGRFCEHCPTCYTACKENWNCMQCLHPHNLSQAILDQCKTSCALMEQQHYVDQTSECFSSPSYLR
UniProt P18564, 22-707 limits assumed: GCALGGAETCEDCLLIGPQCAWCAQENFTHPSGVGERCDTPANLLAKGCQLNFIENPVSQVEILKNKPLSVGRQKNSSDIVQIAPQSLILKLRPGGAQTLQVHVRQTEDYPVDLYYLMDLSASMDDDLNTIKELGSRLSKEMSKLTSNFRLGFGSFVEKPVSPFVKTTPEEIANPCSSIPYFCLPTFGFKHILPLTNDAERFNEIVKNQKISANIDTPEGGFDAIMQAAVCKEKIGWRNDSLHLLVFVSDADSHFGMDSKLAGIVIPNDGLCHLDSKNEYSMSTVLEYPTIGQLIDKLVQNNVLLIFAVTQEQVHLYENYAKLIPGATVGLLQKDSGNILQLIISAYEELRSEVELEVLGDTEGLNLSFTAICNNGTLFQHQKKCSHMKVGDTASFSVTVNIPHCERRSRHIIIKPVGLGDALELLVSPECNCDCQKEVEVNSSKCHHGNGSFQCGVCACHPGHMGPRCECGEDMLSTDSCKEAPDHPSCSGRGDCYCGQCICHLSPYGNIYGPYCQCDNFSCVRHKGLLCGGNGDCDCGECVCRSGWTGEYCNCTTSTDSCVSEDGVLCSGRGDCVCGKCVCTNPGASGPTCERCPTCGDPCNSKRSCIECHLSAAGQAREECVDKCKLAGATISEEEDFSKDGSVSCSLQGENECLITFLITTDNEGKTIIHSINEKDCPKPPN

Key:
αvβ8 = αvβ8 (Homo sapiens, UniProt P06756+P26012); test: solid-phase integrin binding assay; conditions: n = 2
αvβ6 = αvβ6 (Homo sapiens, UniProt P06756+P18564); test: solid-phase integrin binding assay; conditions: n = 2

Q: CC(C)C[C@@H]1NC(=O)[C@H](CC(=O)O)NC(=O)CNC(=O)[C@H](CCCNC(=N)N)NC(=O)[C@H](Cc2ccccc2)NC(=O)[C@H](CCCCNC(=O)CCCCCNC(=O)CCCCC[N+]2=C(/C=C/C3=CC(=C/C=C4/N(C)c5ccc6ccccc6c5C4(C)C)/CCC3)C(C)(C)c3c2ccc2ccccc32)N(C)C(=O)[C@H]2CCCN2C(=O)[C@H](Cc2ccccc2)NC(=O)[C@H](C)NC1=O [FRX103, cyc(FRGDLAFp(NMe)K(Ahx-Cy7.5))] was tested. Which IC50 (αvβ8) did it give?
A: The IC50 was 481 ± 86 nM.

Q: What about the IC50 (αvβ6) of the same compound?
A: Its IC50 is 45 ± 1 nM.
